Changes are numbered by the printed parent chain. For some of these results: Negatives hold for the conditions tested. For some of these results: At least one verdict was read from the data and is not stated in words by the source. For some of these results: Protein sequences can lack the tags named with them. For some of these results: The comparison behind a weaker result is the experiment's own reference, which may not be listed here. For some of these results: Construct, isoform or probe ends are uncertain for at least one entry.
How the values were obtained:
DDX43 KH-126 [1] = experiment: EMSA; details: EMSA: 40 mM Tris pH 8.0, 0.5 mM MgCl2, 15 mM NaCl, 0.01% NP-40, 0.1 mM DTT, 1 mg/ml BSA, no ATP, ice 30 min (Fig 2A legend: RT), recombinant protein, protein details: His (pET28a), label: 5'-32P
DDX43 KH-89 [2] = target: T1, DDX43 KH-89 (UniProt Q9NXZ2); experiment: EMSA; details: EMSA: 40 mM Tris pH 8.0, 0.5 mM MgCl2, 15 mM NaCl, 0.01% NP-40, 0.1 mM DTT, 1 mg/ml BSA, no ATP, ice 30 min (Fig 2A legend: RT), recombinant protein, residues 54-142, label: 5'-32P
T1 sequence (looked up): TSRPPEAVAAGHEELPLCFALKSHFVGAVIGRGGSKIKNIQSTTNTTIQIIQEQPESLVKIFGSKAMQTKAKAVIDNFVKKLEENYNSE

DDX43 KH-126 [3] = experiment: filter binding; details: Kd not determined, weak binding, filter binding: 25 mM Tris pH 7.5, 25 mM KOAc, 1 mM Mg(OAc)2, 1 mM DTT, 0.1 mg/ml BSA, 37 C, recombinant protein, protein details: His (pET28a), label: 5'-32P
DDX43 full-length A81G = DDX43 full-length A81G (UniProt Q9NXZ2); experiment: EMSA; details: no ATP, weaker than WT, EMSA: 40 mM Tris pH 8.0, 0.5 mM MgCl2, 15 mM NaCl, 0.01% NP-40, 0.1 mM DTT, 1 mg/ml BSA, ice 30 min (Fig 2A legend: RT), recombinant protein, residues 1-648, label: 5'-32P
DDX43 full-length A81S = DDX43 full-length A81S (UniProt Q9NXZ2); experiment: EMSA; details: no ATP, weaker than WT, EMSA: 40 mM Tris pH 8.0, 0.5 mM MgCl2, 15 mM NaCl, 0.01% NP-40, 0.1 mM DTT, 1 mg/ml BSA, ice 30 min (Fig 2A legend: RT), recombinant protein, residues 1-648, label: 5'-32P
DDX43 full-length G87D = DDX43 full-length G87D (UniProt Q9NXZ2); experiment: EMSA; details: no ATP, weaker than WT, EMSA: 40 mM Tris pH 8.0, 0.5 mM MgCl2, 15 mM NaCl, 0.01% NP-40, 0.1 mM DTT, 1 mg/ml BSA, ice 30 min (Fig 2A legend: RT), recombinant protein, residues 1-648, label: 5'-32P
DDX43 full-length WT = DDX43 full-length WT (UniProt Q9NXZ2); experiment: EMSA; details: no ATP, EMSA: 40 mM Tris pH 8.0, 0.5 mM MgCl2, 15 mM NaCl, 0.01% NP-40, 0.1 mM DTT, 1 mg/ml BSA, ice 30 min (Fig 2A legend: RT), recombinant protein, residues 1-648, label: 5'-32P
DDX43 KH-89 [4] = target: T1, DDX43 KH-89; experiment: NMR HSQC titration; details: NMR: 25 mM Hepes pH 7.4, 250 mM NaCl, 5% D2O, temperature not stated, recombinant protein, residues 54-142, single-stranded DNA
DDX43 KH-74 = target: T2, DDX43 KH-74 (UniProt Q9NXZ2); experiment: EMSA; details: EMSA: 40 mM Tris pH 8.0, 0.5 mM MgCl2, 15 mM NaCl, 0.01% NP-40, 0.1 mM DTT, 1 mg/ml BSA, no ATP, ice 30 min (Fig 2A legend: RT), recombinant protein, protein details: His (pET28a), label: 5'-32P
T2 sequence (looked up, limits assumed): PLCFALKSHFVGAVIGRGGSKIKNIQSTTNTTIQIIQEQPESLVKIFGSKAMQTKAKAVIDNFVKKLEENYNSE

DDX43 KH-89 A81G = target: T3, DDX43 KH-89 A81G (UniProt Q9NXZ2); experiment: EMSA; details: EMSA: 40 mM Tris pH 8.0, 0.5 mM MgCl2, 15 mM NaCl, 0.01% NP-40, 0.1 mM DTT, 1 mg/ml BSA, no ATP, ice 30 min (Fig 2A legend: RT), recombinant protein, residues 54-142, protein details: His cleaved by thrombin, label: 5'-32P
T3 sequence (looked up): T1 sequence (looked up) with A28G

DDX43 KH-89 A81S [5] = target: T4, DDX43 KH-89 A81S (UniProt Q9NXZ2); experiment: EMSA; details: EMSA: 40 mM Tris pH 8.0, 0.5 mM MgCl2, 15 mM NaCl, 0.01% NP-40, 0.1 mM DTT, 1 mg/ml BSA, no ATP, ice 30 min (Fig 2A legend: RT), recombinant protein, residues 54-142, protein details: His cleaved by thrombin, label: 5'-32P
T4 sequence (looked up): T1 sequence (looked up) with A28S

DDX43 KH-89 A81S [6] = target: T4, DDX43 KH-89 A81S; experiment: NMR HSQC titration; details: fewer and smaller shifts than WT; NMR: 25 mM Hepes pH 7.4, 250 mM NaCl, 5% D2O, temperature not stated; recombinant protein; residues 54-142; protein details: His cleaved by thrombin; single-stranded DNA
[7] = rU30 > dT30 > dC30 > dA30, single-stranded DNA
[8] = similar to KH-126, single-stranded DNA
[9] = Kd within 0.348-1.232 mM for the four A-containing 5-mers

Sequence: AAAAAAAAAAAAAAAAAAAAAAAAAAAAAA [dA30]
- binding result (DDX43 KH-126 [1]; [7]): binds more weakly
- binding result (DDX43 KH-89 [2]; [8]): binds more weakly
- binding result (DDX43 KH-126 [3]; single-stranded DNA): binds more weakly

Sequence: AAAAAAAAAAAAAAAACCGUAAAGACGC / GCGUCUUUACGGU [13-bp dsRNA 5' poly(A) tail]
- binding result (DDX43 full-length A81G): binds more weakly
- binding result (DDX43 full-length A81S): binds more weakly
- binding result (DDX43 full-length G87D): binds more weakly
- binding result (DDX43 full-length WT; weaker than UUGU tail): binds more weakly

Sequence: ACCAC
- binding result (DDX43 KH-89 [4]; [9]): binds more weakly

Sequence: AGAGA
- binding result (DDX43 KH-89 [4]; weaker than CTCTC): binds more weakly

Sequence: ATATA
- binding result (DDX43 KH-89 [4]; [9]): binds more weakly

Sequence: ATTAT
- binding result (DDX43 KH-89 [4]; [9]): binds more weakly

Sequence: CACAC
- binding result (DDX43 KH-89 [4]; [9]): binds more weakly

Sequence: CCACTCAATACACCATCACCAAAAAAAAAAAAAAAAAAAAAAAAA / GGTGATGGTGTATTGAGTGG [20-bp dsDNA 3' poly(A) tail]
- binding result (DDX43 full-length A81G): binds more weakly
- binding result (DDX43 full-length A81S): binds more weakly
- binding result (DDX43 full-length G87D): binds more weakly
- binding result (DDX43 full-length WT; weaker than TTGT tail): binds more weakly

Sequence: CCACTCAATACACCATCACCTTGTTGTTGTTGTTGTTGTTGTTGT / GGTGATGGTGTATTGAGTGG [20-bp dsDNA 3' TTGT-repeat tail]
- binding result (DDX43 full-length A81G): binds more weakly
- binding result (DDX43 full-length A81S): binds more weakly
- binding result (DDX43 full-length G87D): binds more weakly

Sequence: CCACTCAATACACCATCACCTTTTTTTTTTTTTTTTTTTTTTTTT / GGTGATGGTGTATTGAGTGG [20-bp dsDNA 3' poly(T) tail]
- binding result (DDX43 full-length A81G): binds more weakly
- binding result (DDX43 full-length A81S): binds more weakly
- binding result (DDX43 full-length G87D): binds more weakly
- binding result (DDX43 full-length WT; weaker than TTGT tail): binds more weakly

Sequence: GAGCTACCAGCTACCCCGTATGTCAGAGAG (double strand) [blunt-end dsDNA 30 bp]
- binding result (DDX43 KH-126 [1]; up to 9.6 uM protein): no binding
- binding result (DDX43 KH-74): no binding
- binding result (DDX43 KH-89 [2]): no binding
- binding result (DDX43 KH-126 [3]): binds more weakly

Sequence: GAGCTACCAGCTACCCCGTATGTCAGAGAG [ssDNA 30-mer]
- binding result (DDX43 KH-126 [1]; single-stranded DNA): binds
- binding result (DDX43 KH-74; single-stranded DNA): binds
- binding result (DDX43 KH-89 A81G; single-stranded DNA): binds more weakly
- binding result (DDX43 KH-89 A81S [5]; single-stranded DNA): binds more weakly

Sequence: GAGCUACCAGCUACCCCGUAUGUCAGAGAG [ssRNA 30-mer]
- binding result (DDX43 KH-126 [1]): binds
- binding result (DDX43 KH-74): binds
- binding result (DDX43 KH-89 A81G): binds more weakly
- binding result (DDX43 KH-89 A81S [5]): binds more weakly

Sequence: GGTTG
- binding result (DDX43 KH-89 [4]; weaker than GTTGT): binds more weakly

Sequence: GTTTG
- binding result (DDX43 KH-89 [4]; weaker than GTTGT): binds more weakly

Sequence: TTTTT [dT5]
- binding result (DDX43 KH-89 A81S [6]): binds more weakly

Sequence: TTTTTTTTTTTTTTTTTTTTTTTTTTTTTT [dT30]
- binding result (DDX43 KH-126 [1]; [7]): binds
- binding result (DDX43 KH-89 [2]; [8]): binds

Sequence: UGUUGUUGUUGUUGUACCGUAAAGACGC / GCGUCUUUACGGU [13-bp dsRNA 5' UUGU-repeat tail]
- binding result (DDX43 full-length A81G): binds more weakly
- binding result (DDX43 full-length A81S): binds more weakly
- binding result (DDX43 full-length G87D): binds more weakly

Sequence: UUUUUUUUUUUUUUUACCGUAAAGACGC / GCGUCUUUACGGU [13-bp dsRNA 5' poly(U) tail]
- binding result (DDX43 full-length A81G): binds more weakly
- binding result (DDX43 full-length A81S): binds more weakly
- binding result (DDX43 full-length G87D): binds more weakly
- binding result (DDX43 full-length WT; weaker than UUGU tail): binds more weakly

Sequence: UUUUUUUUUUUUUUUUUUUUUUUUUUUUUU [rU30]
- binding result (DDX43 KH-126 [1]; rU30 > dT30 > dC30 > dA30): binds
- binding result (DDX43 KH-89 [2]; similar to KH-126): binds
